For assay [1], the system named is Saccharomyces cerevisiae HF7c pdr5Δ. Briefly: general growth inhibition of yeast HF7c pdr5Δ in -Leu -Trp medium, relative to DMSO; higher = stronger general growth inhibition. Particulars: 100 µM; 24 h.
Assay [2] has as its system human PEX3-PEX19 interaction (yeast two-hybrid). Briefly: growth inhibition of yeast two-hybrid strain reporting HsPex3-HsPex19 interaction, relative to DMSO; higher = stronger inhibition of human Pex3-Pex19 interaction / growth. Particulars: 100 µM; 24 h; 3-aminotriazole 10 mM.
The test system of assay [3] is T. brucei Pex3-Pex19 interaction (yeast two-hybrid). Briefly: growth inhibition of yeast two-hybrid strain reporting TbPex3-TbPex19 interaction, relative to DMSO; higher = stronger inhibition of T. brucei Pex3-Pex19 interaction / growth. Particulars: 100 µM; 24 h.

Drawing on the supplement of paper PMC8326762, “A Small Molecule Inhibitor of Pex3–Pex19 Interaction Disrupts Glycosome Biogenesis and Causes Lethality in Trypanosoma brucei” (Frontiers in Cell and Developmental Biology, 2021), this text covers general growth inhibition and growth inhibition for 6 molecules.

Where a name gives a salt, the structure may show the parent alone. This is one part of the list. The data scatter; read single values as rough.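 Yeast growth was measured as optical density at 600 nm. Two-hybrid strains grew without histidine, so growth depended on Pex3–Pex19 binding. A compound was trypanosome-selective if it reduced growth of the trypanosome-pair strain by over 65% and of the human-pair strain by under 65%.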

`CNCCC=C1c2ccccc2CCc2ccccc21` [Nortriptyline hydrochloride]: the general growth inhibition in assay [1] was determined as 38%. Moreover, the growth inhibition in assay [2] was found to be 44.2%; in assay [3], 59.2%.

Molecule `CCCN(CCC)CCc1cccc2c1CC(=O)N2` [Ropinirole hydrochloride] showed a general growth inhibition in assay [1] of 43%. The growth inhibition in assay [2] worked out at 45.4%; in assay [3], 53%.

The molecule `C[C@]12C=CC(=O)C=C1CC[C@H]1[C@@H]3C[C@@H](O)[C@](O)(C(=O)CO)[C@@]3(C)C[C@H](O)[C@@]12F` [Triamcinolone] gave a general growth inhibition in assay [1] of 54.1%. For the same molecule, the values for the growth inhibition in assay [2] and in assay [3] were 53.9% and 62.1%, respectively.

The molecule `CCN(CC)CCNC(=O)c1cc(S(C)(=O)=O)ccc1OC` [Tiapride hydrochloride] had a general growth inhibition in assay [1] of 48.4%. Besides, the growth inhibition in assay [2] was 53.5%; in assay [3] it was 55.4%.

Molecule `CC(C)NCC(O)COc1cccc2ccccc12` (racemic) [(±)-Propranolol hydrochloride] gave a general growth inhibition in assay [1] of 50.2%. Further, the figures for the growth inhibition in assay [2] and in assay [3] were 46.6% and 71.3%, respectively.

On to `O=c1cc(O)cc(/C=C/c2ccc(O)c(O)c2)o1` [Hispidin], for which the general growth inhibition in assay [1] worked out at 7.12%. The growth inhibition in assay [2] is -0.794%; in assay [3] it was 34.5%.
